Assay [1] deals with T1, EGFP-KATNAL2 (katanin-like 2) (mouse) (UniProt Q9D3R6).
T1 sequence: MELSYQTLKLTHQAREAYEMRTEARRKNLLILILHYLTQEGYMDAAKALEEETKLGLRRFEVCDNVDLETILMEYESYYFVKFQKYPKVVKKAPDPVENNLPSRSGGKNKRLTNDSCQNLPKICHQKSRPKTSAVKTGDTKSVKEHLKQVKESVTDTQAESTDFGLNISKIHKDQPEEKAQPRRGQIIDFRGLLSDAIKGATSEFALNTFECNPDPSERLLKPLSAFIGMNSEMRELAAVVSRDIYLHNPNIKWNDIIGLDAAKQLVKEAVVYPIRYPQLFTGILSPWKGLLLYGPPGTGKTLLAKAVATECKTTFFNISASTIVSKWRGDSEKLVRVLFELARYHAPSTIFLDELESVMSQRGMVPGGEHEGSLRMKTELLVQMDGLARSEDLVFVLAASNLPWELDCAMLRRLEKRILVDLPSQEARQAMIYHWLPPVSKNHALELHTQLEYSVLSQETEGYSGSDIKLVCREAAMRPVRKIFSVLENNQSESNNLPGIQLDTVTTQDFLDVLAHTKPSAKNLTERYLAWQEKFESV
Put plainly: co-IP; HEK293T cells co-transfected with pEGFP-Katnal2 (or empty pEGFP-C1) and a pmCherry construct; precipitated with anti-GFP-Trap-A beads; blots with antibodies against GFP and mCherry.

Amino acid sequences for entries named in this document (tags omitted).
UniProt Q8BG40: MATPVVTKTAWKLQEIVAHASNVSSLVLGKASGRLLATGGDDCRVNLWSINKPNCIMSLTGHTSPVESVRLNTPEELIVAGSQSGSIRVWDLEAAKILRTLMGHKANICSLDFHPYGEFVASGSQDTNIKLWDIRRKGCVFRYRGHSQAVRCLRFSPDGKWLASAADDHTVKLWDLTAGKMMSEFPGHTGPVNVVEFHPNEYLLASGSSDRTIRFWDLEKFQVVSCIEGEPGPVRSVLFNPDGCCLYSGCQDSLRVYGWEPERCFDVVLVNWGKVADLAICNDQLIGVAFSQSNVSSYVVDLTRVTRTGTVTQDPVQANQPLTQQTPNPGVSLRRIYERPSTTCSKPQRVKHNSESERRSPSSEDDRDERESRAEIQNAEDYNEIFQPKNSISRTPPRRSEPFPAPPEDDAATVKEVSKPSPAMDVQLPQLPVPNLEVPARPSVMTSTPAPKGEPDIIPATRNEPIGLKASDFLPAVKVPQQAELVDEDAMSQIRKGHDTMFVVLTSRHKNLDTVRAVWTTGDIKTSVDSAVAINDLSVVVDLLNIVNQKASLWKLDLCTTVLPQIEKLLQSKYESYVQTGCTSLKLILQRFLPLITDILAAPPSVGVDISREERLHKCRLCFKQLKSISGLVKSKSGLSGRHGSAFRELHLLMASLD

Assay [2] concerns the target T2, KATNAL2 (katanin-like 2), endogenous (mouse (endogenous in testis)) (UniProt Q9D3R6).
T2 sequence: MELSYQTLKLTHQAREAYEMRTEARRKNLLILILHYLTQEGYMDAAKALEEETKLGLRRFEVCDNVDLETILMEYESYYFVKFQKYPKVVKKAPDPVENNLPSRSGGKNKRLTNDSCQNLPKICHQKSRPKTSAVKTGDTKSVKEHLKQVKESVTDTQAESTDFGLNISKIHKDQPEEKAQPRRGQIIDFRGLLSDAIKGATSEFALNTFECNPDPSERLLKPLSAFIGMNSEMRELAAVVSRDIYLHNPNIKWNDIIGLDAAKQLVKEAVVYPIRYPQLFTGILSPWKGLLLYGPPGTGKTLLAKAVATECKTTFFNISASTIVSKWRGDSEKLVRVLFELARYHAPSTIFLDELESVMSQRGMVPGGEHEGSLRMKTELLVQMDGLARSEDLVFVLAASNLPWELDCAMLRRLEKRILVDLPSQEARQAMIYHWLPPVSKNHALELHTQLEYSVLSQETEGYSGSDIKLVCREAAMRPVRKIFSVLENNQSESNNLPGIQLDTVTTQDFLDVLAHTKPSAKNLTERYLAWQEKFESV
As to the kind of experiment: proximity ligation; Duolink in situ proximity ligation assay on isolated, fixed and permeabilized mouse elongating spermatids; Katnal2 KO/KO spermatids in parallel as control; probes bind if less than 40 nanometres apart.

Assay [3] deals with T1, EGFP-KATNAL2 (katanin-like 2) (mouse). As to the kind of experiment: co-IP; HEK293T cells co-transfected with pEGFP-Katnal2 (or empty pEGFP-C1) and a pmCherry construct; precipitated with anti-GFP-Trap-A beads; blots with antibodies against GFP and mCherry. This is another data set of the same source.
Assay [4] concerns the target T2, KATNAL2 (katanin-like 2), endogenous (mouse (endogenous in testis)). Put plainly: co-IP; adult mouse testis lysate; precipitated with an antibody against the N-terminus of KATNAL2 (Pierce Co-Immunoprecipitation Kit); blots for KATNAL2, TUBD1 and TUBE1.
For assay [5] the target is unchanged. As to the kind of experiment: proximity ligation; Duolink in situ proximity ligation assay on isolated, fixed and permeabilized mouse elongating spermatids; Katnal2 KO/KO spermatids in parallel as control; probes bind if less than 40 nanometres apart. The source holds these as a separate data set.

Read-outs that look alike come from different tables or passages of the source. Results are given in words; binding and its absence hold for the method and conditions named. In cells and extracts the contact can be indirect. Some binding calls cover weakened binding; strength is not graded here. For some assays here: Tags and fused reporters may be left off the sequences shown.

With “mCherry-KATNB1 (from UniProt Q8BG40 1-658)”, the binding entry in assay [1] was “binds”.

“KATNB1, endogenous (from UniProt Q8BG40 1-658)”: in assay [2], the binding result was “binds”.

B1: mCherry-TUBE1 (ε-tubulin) (protein, UniProt Q9D6T1 1-475)
chain: MTQSVVVQVGQCGNQIGCCFWDLALREHAAVNQKGIYDDAISSFFRNVDTRAVGDGGSISKGRISSLKARAVLIDMEEGVVNEILQGPLRDVFDSKQLITDISGSGNNWAVGHKVFGCLYREQILEKLRKSAEQCDCLQCFFIIHSMGGGTGSGLGTFLLKVLEDEFPEVYRFVTAVYPSSEDDVITSPYNSMLAMKELNEHADCVLPIDNQSLFDIISKIDLVVNSGKLGSAVKPKSLITSNMGAVKKHHKKPFDAMNNIVANLLLSLTSSARFEGSLNMDLNEISMNLVPFPKLHYLVSSLTPLYTLADVNIPPRRLDQMFSDAFSKDHQLIQADPRHSLYLACALIVRGNVQISDLRRNIERLKPALQFVSWNQEGWKTSLCSVPPVGHSHSLLALANNTCVKPTFMELRERFTRLYKKKAHLHHYLQVDGMEESTFTEAVSSLSALIQEYSDLDATKSLPVPDVPRLSVAL
On to B1, for which the binding result in assay [3] is on record as “binds”.

B2: ε-tubulin (TUBE1), endogenous (protein, UniProt Q9D6T1 1-475)
chain: MTQSVVVQVGQCGNQIGCCFWDLALREHAAVNQKGIYDDAISSFFRNVDTRAVGDGGSISKGRISSLKARAVLIDMEEGVVNEILQGPLRDVFDSKQLITDISGSGNNWAVGHKVFGCLYREQILEKLRKSAEQCDCLQCFFIIHSMGGGTGSGLGTFLLKVLEDEFPEVYRFVTAVYPSSEDDVITSPYNSMLAMKELNEHADCVLPIDNQSLFDIISKIDLVVNSGKLGSAVKPKSLITSNMGAVKKHHKKPFDAMNNIVANLLLSLTSSARFEGSLNMDLNEISMNLVPFPKLHYLVSSLTPLYTLADVNIPPRRLDQMFSDAFSKDHQLIQADPRHSLYLACALIVRGNVQISDLRRNIERLKPALQFVSWNQEGWKTSLCSVPPVGHSHSLLALANNTCVKPTFMELRERFTRLYKKKAHLHHYLQVDGMEESTFTEAVSSLSALIQEYSDLDATKSLPVPDVPRLSVAL
Turning to B2, the binding result in assay [4] and in assay [5] was “binds” each time.

B3: mCherry-TUBD1 (δ-tubulin) (protein, UniProt Q9R1K7 1-455)
chain: MSIVTVQLGQCGNQIGFEVFDALFRDSHCSQGLCSKRDNEAYQASCRERFFREEENGVPVARAVLVDMEPKVINQTLSKAAQSGRWNYGQHTSFCQKQGSGNNWAYGYSVHGPKHEESIMNLIQTEVEKCDSLSGFFIIMSMAGGTGSGLGAFVTQKLQDQYSSSLKMNQIIWPYGTGEVIVQNYNSILTLSHLYRSSDALLIHENDAVHKICAKRMNIKQISFRDLNQVLAHQLGSVFQPTYSEDSSFHYRRNPLGDLMEHLVPHPEFKMLGVRNIPQMSAASLAYSAFTWAGLLKHLRQMLISSAKMEEGINWQVRPPLTGLPPIGKASAHKEHHFNTSLANLVVLRGREVHSADVEGFKDPALYTSWLEPVDAFSVWKTQRAFDKYEKSAALVSNSQLLVKPLDMIVGKAWNMFSSKAFIHQYTKFGMEEEDFLDSFALLEQVVASYGSLGP
On to B3, for which, in assay [3], the binding entry is “binds”.

B4: δ-tubulin (TUBD1), endogenous (protein, UniProt Q9R1K7 1-455)
chain: MSIVTVQLGQCGNQIGFEVFDALFRDSHCSQGLCSKRDNEAYQASCRERFFREEENGVPVARAVLVDMEPKVINQTLSKAAQSGRWNYGQHTSFCQKQGSGNNWAYGYSVHGPKHEESIMNLIQTEVEKCDSLSGFFIIMSMAGGTGSGLGAFVTQKLQDQYSSSLKMNQIIWPYGTGEVIVQNYNSILTLSHLYRSSDALLIHENDAVHKICAKRMNIKQISFRDLNQVLAHQLGSVFQPTYSEDSSFHYRRNPLGDLMEHLVPHPEFKMLGVRNIPQMSAASLAYSAFTWAGLLKHLRQMLISSAKMEEGINWQVRPPLTGLPPIGKASAHKEHHFNTSLANLVVLRGREVHSADVEGFKDPALYTSWLEPVDAFSVWKTQRAFDKYEKSAALVSNSQLLVKPLDMIVGKAWNMFSSKAFIHQYTKFGMEEEDFLDSFALLEQVVASYGSLGP
For B4, the binding result in assay [4] and in assay [5] was “binds” in each case.

(Values after publication PMC5705150.)
